According to PubChem BioAssay AID328 (DTP/NCI, 2004):
The list is a part of this screen's results and no random one: it is rich in T/C values a quarter to a half above the control, in often repeated tests (any T/C) and in doses without a T/C. Other doses and runs of a compound stand elsewhere. T/C: endpoint of the treated group in % of that of the vehicle group. Some doses have a count of surviving animals in place of a T/C: the source holds a T/C of zero for them, seemingly a mark for toxic or unscored doses. Some survivor counts are full or nearly so, which does not show that the dose was tolerated: survival well below the control is almost never listed, so the zero probably covers shortened survival too. Survivors were counted at the toxicity check, usually on the fifth day, unless a day is given; later deaths do not show. Schedule codes are those of the source, taken here to give the interval after Q, in days (D) or hours (H), and the number of doses after X. For survival time, this PubChem deposit counts one and a half times the control or more as active, and values a quarter to a half above the control carry no call in these data; other NCI protocols may use other cut-offs. Some entries were tested several times; the results are listed from low to high. Some T/C values are followed by the survivors on the day toxicity was checked, most often the fifth; without a count, all were alive then.

Tested on: BDF1 mice, P388 leukemia ip, median survival T/C
Test: NCI In Vivo Anticancer Drug Screen. Data for tumor model P388 Leukemia (intraperitoneal) in B6D2F1 (BDF1) mice
Settings: T/C endpoint: median survival time, higher T/C = longer survival
Outline: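 Mice carrying the transplantable tumour receive compound or vehicle. Survival is followed in each arm, and the treated measure is divided by the vehicle measure.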

[1] = dose: 200.0 mg/kg/injection, schedule: Q01DX009 (ip), vehicle: other
[2] = dose: 12.5 mg/kg/injection, schedule: Q01DX009 (ip), vehicle: saline
[3] = dose: 25.0 mg/kg/injection, schedule: Q01DX009 (ip), vehicle: saline
[4] = dose: 50.0 mg/kg/injection, schedule: Q01DX009 (ip), vehicle: saline with Tween-80
[5] = dose: 200.0 mg/kg/injection, schedule: Q01DX009 (ip), vehicle: saline with Tween-80

## O=C(/C=C/c1ccccc1Cl)NCC(O)CO (stereo unspecified)
[1]
  survivor count: 6 of 6

## CN(C)/N=N/c1nc[nH]c1C(N)=O
dose: 44.0 mg/kg/injection, schedule: Q01DX009 (ip), vehicle: carboxymethylcellulose (CMC)
  survivor count: 10 of 10
dose: 50.0 mg/kg/injection, schedule: Q01DX010 (ip), vehicle: saline
  T/C: 129 % of control
dose: 67.0 mg/kg/injection, schedule: Q01DX009 (ip), vehicle: carboxymethylcellulose (CMC)
  survivor count: 10 of 10
dose: 100.0 mg/kg/injection, schedule: Q01DX009 (ip), vehicle: carboxymethylcellulose (CMC)
  survivor count: 10 of 10
dose: 200.0 mg/kg/injection, schedule: Q01DX010 (ip), vehicle: saline
  T/C: 130 and 133 % of control
dose: 400.0 mg/kg/injection, schedule: Q01DX010 (ip), vehicle: saline
  survivor count: 0 of 6
dose: 418.0 mg/kg/injection, schedule: Q01DX001 (ip), vehicle: carboxymethylcellulose (CMC)
  T/C: 127 % of control
dose: 625.0 mg/kg/injection, schedule: Q01DX001 (ip), vehicle: carboxymethylcellulose (CMC), evaluated on day 5
  T/C: 147 % of control
dose: 625.0 mg/kg/injection, schedule: Q01DX001 (ip), vehicle: carboxymethylcellulose (CMC), evaluated on day 45
  T/C: 148 % of control
dose: 700.0 mg/kg/injection, schedule: Q01DX001 (ip), vehicle: carboxymethylcellulose (CMC)
  T/C: 142 % of control
dose: 800.0 mg/kg/injection, schedule: Q01DX009 (ip), vehicle: Klucel (hydroxypropylcellulose) (HPC)
  survivor count: 1 of 10
dose: 935.0 mg/kg/injection, schedule: Q01DX001 (ip), vehicle: carboxymethylcellulose (CMC)
  survivor count: 2 of 6

## O=C1c2ccccc2C(=O)c2c(NCCCCCO)ccc(NCCCCCO)c21
dose: 50.0 mg/kg/injection, schedule: Q01DX009 (ip), vehicle: other
  survivor count: 6 of 6
[1]
  survivor count: 6 of 6
dose: 400.0 mg/kg/injection, schedule: Q01DX009 (ip), vehicle: other
  survivor count: 5 of 6

## CC1=CCCC2(CCC3(C)CC32)C1(C)C (stereo unspecified)
dose: 200.0 mg/kg/injection, schedule: Q01DX009 (ip), vehicle: saline
  T/C: 130 % of control

## CC(/C=C/C=C/c1ccccc1)=N\O
dose: 100.0 mg/kg/injection, schedule: Q01DX009 (ip), vehicle: Klucel (hydroxypropylcellulose) (HPC)
  survivor count: 6 of 6

## O=C(NCCCl)NC1c2ccccc2CCc2ccccc21
dose: 400.0 mg/kg/injection, schedule: Q04DX003 (ip), vehicle: Klucel (hydroxypropylcellulose) (HPC)
  survivor count: 6 of 6

## CCC1OC(=O)CC(O)C(C)C(OC2OC(C)C(O)C(N(C)C)C2O)C(CC=O)CC(C)C(=O)/C=C/C2(C)OC2C1C (stereo unspecified)
dose: 37.5 mg/kg/injection, schedule: Q01DX009 (ip), vehicle: Klucel (hydroxypropylcellulose) (HPC)
  T/C: 134 % of control
dose: 75.0 mg/kg/injection, schedule: Q01DX009 (ip), vehicle: Klucel (hydroxypropylcellulose) (HPC)
  T/C: 133 % of control

## CC(=O)Nc1ccc(Cl)cc1C(=O)c1ccc[nH]1
dose: 100.0 mg/kg/injection, schedule: Q01DX009 (ip), vehicle: saline
  survivor count: 6 of 6

## CC1CCCC/C1=N/NC(N)=O (stereo unspecified)
dose: 400.0 mg/kg/injection, schedule: Q01DX009 (ip), vehicle: Klucel (hydroxypropylcellulose) (HPC)
  survivor count: 4 of 6

## COc1ccc([I+]c2ccccc2)cc1
[2]
  survivor count: 6 of 6
[3]
  survivor count: 0 of 6
dose: 50.0 mg/kg/injection, schedule: Q04DX003 (ip), vehicle: saline sonified
  survivor count: 1 of 6

## O=C1SCCC1CO (stereo unspecified)
dose: 200.0 mg/kg/injection, schedule: Q04DX003 (ip), vehicle: saline with Tween-80
  survivor count: 6 of 6
dose: 400.0 mg/kg/injection, schedule: Q04DX003 (ip), vehicle: saline with Tween-80
  survivor count: 0 of 6

## CC([NH-])C(=O)O.CC([NH-])C(=O)O.[Ni+2] (stereo unspecified)
[3]
  survivor count: 5 of 6
dose: 32.0 mg/kg/injection, schedule: Q01DX009 (ip), vehicle: saline
  survivor count: 2 of 6
dose: 42.0 mg/kg/injection, schedule: Q01DX009 (ip), vehicle: saline
  survivor count: 0 of 6
dose: 50.0 mg/kg/injection, schedule: Q04DX003 (ip), vehicle: saline
  survivor count: 4 of 6

## Nc1cc(C(=O)Nc2ccc(CCNC3=NCCN3)cc2)ccc1C(=O)Nc1ccc(CCNC2=NCCN2)cc1
dose: 4.0 mg/kg/injection, schedule: Q01DX009 (ip), vehicle: saline with Tween-80
  T/C: 130 % of control
dose: 18.0 mg/kg/injection, schedule: Q04DX003 (ip), vehicle: saline with Tween-80
  T/C: 145 % of control
dose: 40.0 mg/kg/injection, schedule: Q01DX009 (ip), vehicle: saline with Tween-80
  survivor count: 6 of 6
dose: 60.0 mg/kg/injection, schedule: Q04DX003 (ip), vehicle: saline with Tween-80
  survivor count: 2 of 6

## O=C(O)CCC(=O)CCl
dose: 8.0 mg/kg/injection, schedule: Q01DX009 (ip), vehicle: saline
  T/C: 125 % of control
dose: 8.25 mg/kg/injection, schedule: Q01DX009 (ip), vehicle: saline
  T/C: 127 % of control
dose: 12.5 mg/kg/injection, schedule: Q01DX009 (ip), vehicle: saline with Tween-80
  T/C: 136 % of control
[2]
  T/C: 127 % of control
dose: 18.0 mg/kg/injection, schedule: Q01DX009 (ip), vehicle: saline
  T/C: 137 % of control
dose: 18.75 mg/kg/injection, schedule: Q01DX009 (ip), vehicle: saline
  T/C: 136 % of control [5 of 6 alive]
dose: 25.0 mg/kg/injection, schedule: Q01DX009 (ip), vehicle: saline with Tween-80
  T/C: 140 % of control
[4]
  survivor count: 3 of 6

## CC(c1ccccc1)[n+]1ccccc1C1OCCO1 (stereo unspecified)
dose: 25.0 mg/kg/injection, schedule: Q04DX003 (ip), vehicle: saline
  survivor count: 4 of 6

## CN(C)c1ccc(C2OC3(CCCCC3)C[N+]23CCCC3)cc1 (stereo unspecified)
dose: 60.0 mg/kg/injection, schedule: Q01DX009 (ip), vehicle: saline
  survivor count: 6 of 6
dose: 90.0 mg/kg/injection, schedule: Q01DX009 (ip), vehicle: saline
  survivor count: 5 of 6
dose: 135.0 mg/kg/injection, schedule: Q01DX009 (ip), vehicle: saline
  survivor count: 2 of 6
dose: 150.0 mg/kg/injection, schedule: Q04DX003 (ip), vehicle: Klucel (hydroxypropylcellulose) (HPC)
  survivor count: 5 of 6
dose: 225.0 mg/kg/injection, schedule: Q04DX003 (ip), vehicle: Klucel (hydroxypropylcellulose) (HPC)
  survivor count: 2 of 6
dose: 300.0 mg/kg/injection, schedule: Q01DX001 (ip), vehicle: Klucel (hydroxypropylcellulose) (HPC)
  survivor count: 1 of 6
dose: 335.0 mg/kg/injection, schedule: Q04DX003 (ip), vehicle: Klucel (hydroxypropylcellulose) (HPC)
  survivor count: 0 of 6

## Cc1cc(O)c(C(c2ccccc2)c2c(O)cc(C)[nH]c2=O)c(=O)[nH]1
[5]
  survivor count: 6 of 6

## CC1OC(OC2C(O)CC(OC3C(O)CC(OC4CCC5(C)C(CCC6C5CCC5(C)C(C7=CC(=O)OC7)CCC65O)C4)OC3C)OC2C)CC(O)C1O (stereo unspecified)
dose: 5.0 mg/kg/injection, schedule: Q01DX010 (ip), vehicle: saline
  survivor count: 1 of 6
dose: 10.0 mg/kg/injection, schedule: Q01DX010 (ip), vehicle: saline
  survivor count: 1 of 6
dose: 20.0 mg/kg/injection, schedule: Q01DX010 (ip), vehicle: saline
  survivor count: 2 of 6
dose: 40.0 mg/kg/injection, schedule: Q01DX010 (ip), vehicle: saline
  survivor count: 0 of 6

## CCCCCCCCCCCC[N+](C)(C)CC(O)C[N+](C)(C)CCCCCCCCCCCC
[2]
  survivor count: 1 of 6
[4]
  survivor count: 0 of 6
dose: 100.0 mg/kg/injection, schedule: Q01DX009 (ip), vehicle: saline with Tween-80
  survivor count: 0 of 6
[5]
  survivor count: 0 of 6

## OCC[P+](c1ccccc1)(c1ccccc1)c1ccccc1
dose: 100.0 mg/kg/injection, schedule: Q01DX001 (ip), vehicle: saline with Tween-80
  survivor count: 0 of 6
dose: 100.0 mg/kg/injection, schedule: Q01DX001 (ip), vehicle: saline
  survivor count: 1 of 6
dose: 200.0 mg/kg/injection, schedule: Q01DX001 (ip), vehicle: saline with Tween-80
  survivor count: 0 of 6
dose: 400.0 mg/kg/injection, schedule: Q01DX001 (ip), vehicle: saline with Tween-80
  survivor count: 0 of 6

## C1CCCCCC(NC2=NCCO2)CCCCC1
dose: 12.5 mg/kg/injection, schedule: Q04DX003 (ip), vehicle: saline with Tween-80
  survivor count: 6 of 6
